Patent US20200181089A1, “4-ANILINO-QUINOLINE COMPOUNDS AS ANTI-CANCER AGENTS” (INSERM (INSTITUT NATIONAL DE LA SANTÉ ET DE LA RECHERCHE …, priority 2016, published 2020)
At least one compound was matched to its structure with a doubt left.

Legend:
A375 cells = assay: Senescence in A375 cells (beta-galactosidase assay); format: cell-based; settings: dose-dependent
[1] = system: cleaved PARP, caspase 3, LC3, CHOP; assay: Cleaved PARP, caspase 3, LC3, CHOP activation in cancer cells; format: cell-based
EZH2 transcription = assay: Ability to decrease EZH2 mRNA level in A375 (dose-response, quantitative PCR); format: cell-based; settings: A375, 96 h, increasing concentrations, FIG. 1A
Procedure: Typically, 30000-50000 cells were plated in six-well culture plates and incubated 24 h later with increasing concentration of NIK inhibitors or vehicle. Cells were incubated with the inhibitors for 4 days prior to harvesting for RNA extraction and PCR. Total RNA was isolated from cells using the RNAeasy minikit (Qiagen) according to the manufacturer's procedure. Reverse transcription was performed using the AMV reverse transcription system (Promega), and quantitative PCR was performed with Power Sybr green (Applied Biosystems, Life Technologies, Grand Island, N.Y.) following the manufacturer's instructions. The PCR was carried out on a Step One plus Real-Time PCR system (Applied Biosystems). All analyses were done in triplicate, and a melting curve analysis was performed to control for product quality and specificity. Expression levels were calculated using the comparative method of relative quantification, with SB34 as a normalizer. The data were analyzed for statistical significance using Student's t-test. The results are presented as the mean±SEM relative to the control. Primers were obtained from primer bank or primer depot (http://pga.mgh.harvard.edu/primerbank/, https://primerdepot.nci.nih.gov), and their specificity was verified using primer blast (http://www.ncbi.nlm.nih.gov/tools/primer-blast/). […]

IFN-γ [2] = assay: IFN-γ measured by ELISA / secretome of treated cancer cell lines; format: cell-based; settings: A375, C12.06 and A549 cells
STAT1 = STAT1 phosphorylation in cancer cells; format: cell-based
IFN-γ [3] = assay: mRNA level of IFNG in A375 cells; format: cell-based; settings: A375, 96 h, FIG. 1B
CDKN1A = assay: mRNA level of CDKN1A in A375 cells; format: cell-based; settings: A375, 96 h, FIG. 1B
CT26 cells = assay: Spleen CD3+ T-cells of treated mice cocultured with naïve CT26 cells; format: in vivo; settings: coculture 24 or 48 h
Procedure: 1 mg/kg DZNEP and 10 mg/kg compound 5 were used for the subsequent experiments. Tridimensional measurements were performed daily, and the tumor volume was expressed as mm^3. […] Freshly collected tumors were dissociated and stained for immune-cell infiltrate using a flow cytometer. CD3+ T cells from spleen tissue were negatively selected using myltennyi magnetic columns and put in contact with naïve CT26 cells for 24 or 48 h. The CT26 cells were subsequently stained with DAPI (0.5 μg/ml, Molecular Probes, Grand Island, N.Y., USA). The T-cells were stained with CD8, perforin, and granzyme B antibodies and analyzed immediately by flow cytometry using a MACS-Quant Analyzer (Miltenyi Biotec, Paris, France).
Spleens were extracted and disaggregated, and the cells were resuspended in PBS. T-cells were isolated by CD3 negative selection to avoid activation. […] The flow-through containing the enriched fraction of CD3 cells was collected and analyzed by flow cytometry to determine the yield of the enrichment (CD3 cells constituted a minimum 70% of the total cells collected).

CT26 colon-cancer cells = assay: Subcutaneous CT26 colon-cancer tumors in Balb/c mice; format: in vivo
Procedure: A. Tumor progression in Balb/c mice subcutaneously injected with CT26 cells (0.5×10^6). After 3 days, treatment with compound 5 (10 mg/kg) or DMSO was given by intraperitoneal injection every other day starting 3 days after the first injection. Two groups of mice (with either DMSO or compound 5 treatment) were treated with anti-PD1 antibody injected subcutaneously every other day. Number of mice for each treatment group=10.
(§1) 0.5×10^6 cells in 100 μL PBS were subcutaneously injected into 4-week-old female C57Bl/6 mice (for the B16 experiment) or Balb/c mice (for the CT26 experiments). DZNEP is an inhibitor of the catalytic activity of EZH2 and was used as an additional control.
1 mg/kg DZNEP and 10 mg/kg compound 5 were used for the subsequent experiments. Tridimensional measurements were performed daily, and the tumor volume was expressed as mm^3. […] The T-cells were stained with CD8, perforin, and granzyme B antibodies and analyzed immediately by flow cytometry using a MACS-Quant Analyzer (Miltenyi Biotec, Paris, France).
Tumors were extracted and disaggregated using […] strainers. […] FoxP3 was detected by cell intranuclear staining employing the BD Pharmingen™ Mouse Foxp3 Buffer Set according to the manufacturer's instructions. IFN-γ, perforin, and granzyme B were detected by intracellular staining using the BD Cytofix/Cytoperm™ Kit following the manufacturer's instructions. […]

B16 melanoma cells = assay: Established subcutaneous B16 melanoma in C57Bl6 mice; format: in vivo; settings: B16, FIGS. 3A and 3B
Procedure: FIG. 3. Compound 5 treatment is effective when used alone in reducing tumor growth in vivo and potentiates the anti-PD1 immune response in C57Bl6 mice subcutaneously injected with B16 melanoma cells. B16 cells were injected subcutaneously and the tumors were let to grow until an average volume of 100 mm^3 was reached. The mice were then sorted into four groups with similar average tumor volume and standard deviation. Treatment with compound 5 (10 mg/kg) or control (DMSO) was given by intraperitoneal injection every day. Anti-PD1 antibodies (125 μg/mouse) was given every other day alone or combined with daily injection of compound 5. Number of mice for each treatment group=8.
as §1
The inventors then asked whether compound 5 was able to increase the survival rate of mice with already established tumor and, if that was the case, also in this situation was able to synergize with anti-PD1 treatment. They thus decided to use the model B16 melanoma cells in C57Bl6 mice. B16 cells were again injected subcutaneously and the tumors were let to grow until an average volume of 100 mm3 was reached. […]

p52, EZH2 = assay: p52 and EZH2 at the protein level in cancer cell types; format: cell-based; settings: each of the cancer cell types

SMILES: COc1ccc(Nc2ccnc3cc(Cl)ccc23)cc1 [Compound 5, 4-((4-methoxyphenyl)amino)-7-chloroquinolinium chloride]
- senescence in A375 cells (A375 cells): restored senescence in A375 cells with a clear, dose-dependent effect
- cleaved PARP, caspase 3, LC3, CHOP [1]: did not increase cleaved PARP or activate caspase 3, LC3 or CHOP
- EZH2 transcription (in words) (EZH2 transcription): decreased EZH2 transcription in a dose-dependent manner
- IFN-γ production vs control cells (IFN-γ [2]; 96 h): produced significantly more IFN-γ than control cells
- secretomes of treated cells (IFN-γ [2]; FIG. 1C): clear IFN-γ signature
- STAT1 phosphorylation (STAT1): induced an increase in STAT1 phosphorylation
- expression of IFN-γ (IFN-γ [3]): increased
- expression of CDKN1A (CDKN1A): increased
- killing of naïve CT26 cells by T-cells isolated from treated mice (CT26 cells): more effective in killing CT26 cells
- growth of the CT26 tumors (CT26 colon-cancer cells; Balb/c mice, compound 5 10 mg/kg, DZNEP 1 mg/kg, FIG. 2A): significantly reduced
- effect on anti-PD1 treatment (CT26 colon-cancer cells; CT26, combination with anti-PD1): clearly potentiates anti-PD1 treatment
- tumor growth in comparison with the control (B16 melanoma cells): effective in reducing the tumor growth
- p52 and EZH2 at the protein level (p52, EZH2): decreased p52, and EZH2 at the protein level
